# Measurements taken from article PMC7819943, “Rice protein-binding microarrays: a tool to detect cis-acting elements near promoter regions in rice”.
# Some of the results follow.
# Biological target: T1, OsSMF1 (Oryza sativa, UniProt Q6ZLB0 1-436)
# T1 sequence: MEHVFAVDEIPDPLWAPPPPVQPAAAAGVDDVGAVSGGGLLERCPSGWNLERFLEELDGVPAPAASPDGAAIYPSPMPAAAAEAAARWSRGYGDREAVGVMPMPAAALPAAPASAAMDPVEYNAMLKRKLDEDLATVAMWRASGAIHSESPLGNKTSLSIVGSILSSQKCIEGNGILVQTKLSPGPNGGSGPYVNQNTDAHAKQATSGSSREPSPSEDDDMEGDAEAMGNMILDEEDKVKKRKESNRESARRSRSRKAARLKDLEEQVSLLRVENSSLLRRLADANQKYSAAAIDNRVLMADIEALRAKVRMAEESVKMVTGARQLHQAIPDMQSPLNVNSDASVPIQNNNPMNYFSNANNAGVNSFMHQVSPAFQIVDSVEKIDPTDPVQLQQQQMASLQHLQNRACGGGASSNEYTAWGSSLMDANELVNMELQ
# Assay: protein-binding microarray (RPBM); PBS, 2% BSA, 51.3 ng/ul salmon testes DNA, 50 uM zinc acetate, 200 nM TF, 25 C, 1 h; high values mean tight binding
# Settings: protein: recombinant; tags: N-terminal polyhistidine and DsRed monomer fusion (pET32a); chain copies: 2; label: CyDye5-dUTP incorporated in the synthesized complementary strand; 3' TTTTT single-stranded linker to array surface; dsDNA, one strand shown
# Method in brief: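 For the binding signal, per-feature fluorescence intensity was read in arbitrary units on an Axon 4000B scanner. Before scanning, a 2% BSA-blocked custom Agilent array made double-stranded with Cy5-dUTP was washed after 1 h at 25 °C with 200 nM protein and 50 µM zinc acetate. The proteins were Ni–NTA-purified transcription factors with N-terminal polyhistidine and DsRed fusions, expressed in E. coli BL21-CodonPlus.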
row,Sequence,binding signal
1,AAAGAGCAGGACATGAGCGGAAATTGCTAGGGCCATGACGCGGAGTCACCTAGTGCAG,3150 fluorescence intensity (a.u.)
2,AGATCACACACAACACGCACATCACGAACCGGACCAAACCCGGAGTCACCTAGTGCAG,3660 fluorescence intensity (a.u.)
3,GTATATTCTGGCCATGAGGTGACGGGAAGCCCACGTCGATCGGAGTCACCTAGTGCAG,4170 fluorescence intensity (a.u.)
4,AGCTCAAGGCACGCCGCGTGGAACCCGTCCGCGCCGAGCGCGGAGTCACCTAGTGCAG,3850 fluorescence intensity (a.u.)
5,TATGTTGCCTAGATACATGACCTGTCCCTCCAGTCTCCCTCGGAGTCACCTAGTGCAG,5400 fluorescence intensity (a.u.)
6,TTTTGTAACTCGATGACAAGTTGAGGGTCCTTTGGTGTACCGGAGTCACCTAGTGCAG,12900 fluorescence intensity (a.u.)
7,CTGTTTGCAATTTGCAATGAGGTGTCAACTACCTCATTCTCGGAGTCACCTAGTGCAG,3430 fluorescence intensity (a.u.)
8,AGTGGGTTTCGTCCAAATACCACGCTGGGAGTGGGCTTTACGGAGTCACCTAGTGCAG,3900 fluorescence intensity (a.u.)
9,ACGCACTTTGACACTTGTCACTTGAGTACATATATTTTGGCGGAGTCACCTAGTGCAG,3160 fluorescence intensity (a.u.)
10,GCCTCCCTCTGTGACATCGTCGAATTTTATCGCGCCCTCCCGGAGTCACCTAGTGCAG,3790 fluorescence intensity (a.u.)
11,CCCAACTACGACCTCCCCGCCCTGGCGCACGGCGGGACCGCGGAGTCACCTAGTGCAG,3550 fluorescence intensity (a.u.)
12,CGTCCGTGCGAATGATTGCATCTGCGCGAGCGACGCCGTTCGGAGTCACCTAGTGCAG,3430 fluorescence intensity (a.u.)
13,ATTGATGTGAAGAACAAATAGTCAATATTATTCTGTATATCGGAGTCACCTAGTGCAG,16900 fluorescence intensity (a.u.)
14,GCTAGGTTCAACGTCATGCCTCATGTTGTCTATTGCTGTTCGGAGTCACCTAGTGCAG,4070 fluorescence intensity (a.u.)
15,GCGGGTAGGATGGAAGGCCAGCGAGGTGGCACCGCTGGCGCGGAGTCACCTAGTGCAG,3540 fluorescence intensity (a.u.)
16,GTCACCAGGGTTGGTTGTTGGAGCCTTTGGACCAATCACGCGGAGTCACCTAGTGCAG,6470 fluorescence intensity (a.u.)
17,AATTTGGTGACGCGTCTCTTTTCTCTCTCTTCTTCTTCTTCGGAGTCACCTAGTGCAG,14400 fluorescence intensity (a.u.)
18,CTTTTGCGACTGCTCGTGTCAGCGACGTGGCTGAACCGCGCGGAGTCACCTAGTGCAG,5260 fluorescence intensity (a.u.)
19,GAACATAATGTTGTTGTCTGAAGTTGCACAGTCATTAAGGCGGAGTCACCTAGTGCAG,4310 fluorescence intensity (a.u.)
20,TGTCTGTTACTTATTTCAAGTCATTTATGTTTAGAAACACCGGAGTCACCTAGTGCAG,3220 fluorescence intensity (a.u.)
21,CCGGAAATCTGAAAATTCTGTCCACGTGGGCCCAGAAACCCGGAGTCACCTAGTGCAG,10300 fluorescence intensity (a.u.)

row,Sequence,binding signal
1,GATAAAACATGATTAATATTTTATGCGTGACTTGTCTTTTCGGAGTCACCTAGTGCAG,3460 fluorescence intensity (a.u.)
2,CTTATTACTGTTCGAGCTTATGTCACATCTATTCCAAGGACGGAGTCACCTAGTGCAG,4460 fluorescence intensity (a.u.)
3,CGGCGCGCAGTGGGACCCACGTGTCGGTCTCATACTCACCCGGAGTCACCTAGTGCAG,8520 fluorescence intensity (a.u.)
4,GTTCTTCACCTCTCGCTCCTATAAAATCCAACGTGGACAACGGAGTCACCTAGTGCAG,30500 fluorescence intensity (a.u.)
5,AACAAACCAGAATCCACGCAAGCAGCAGCCGAAGGGATGCCGGAGTCACCTAGTGCAG,6050 fluorescence intensity (a.u.)
6,CAACTGTGTACGTCATTTTGTTTGCTCTTTTATACATGTACGGAGTCACCTAGTGCAG,7200 fluorescence intensity (a.u.)
7,GGATGGTAGTGCGGAGAGAGTGACGTGTAAGCGAGGAATCCGGAGTCACCTAGTGCAG,11900 fluorescence intensity (a.u.)
8,GCTACATGCTAATTGTGTATATCTAACATGCGCTGACGGCCGGAGTCACCTAGTGCAG,4080 fluorescence intensity (a.u.)
9,TATGGTTTTATGTTATTATTGATATATGAAGTACATTTATCGGAGTCACCTAGTGCAG,3590 fluorescence intensity (a.u.)
10,GATGGGAAGGCCGCGCCGCGTTGACGTGGGCTGCGGACTGCGGAGTCACCTAGTGCAG,8060 fluorescence intensity (a.u.)
11,GGAAGATTAGCTTGCCACCTCATTAATATTTTCAGAAATACGGAGTCACCTAGTGCAG,4090 fluorescence intensity (a.u.)
12,ACCGTAAAAGAAAATTGAACTGACTAGATCGGCCGAGCAACGGAGTCACCTAGTGCAG,3180 fluorescence intensity (a.u.)
13,GGAATTTGCAGACATGTCATCAGCCAGCGTGGCTGAAGAACGGAGTCACCTAGTGCAG,3670 fluorescence intensity (a.u.)
14,CCTGTCGATCCATCGTTGCCACGTCGATCCGCACCTCCGTCGGAGTCACCTAGTGCAG,23400 fluorescence intensity (a.u.)
15,CGGCGACGTCTGATCCGCCATGAGAGCGAGCAGTTTGTTCCGGAGTCACCTAGTGCAG,3140 fluorescence intensity (a.u.)
16,AATCGGCCGCCGGGCACCTGACCTGACCTGACCTCTCTTCCGGAGTCACCTAGTGCAG,3150 fluorescence intensity (a.u.)
17,CTAATGGGAGCACCATCAGTGTTGGCATTTGCACATGCCACGGAGTCACCTAGTGCAG,3280 fluorescence intensity (a.u.)
18,TATATTTACACGGGTAAGCAACTTCCTTTTCAAGTAGAACCGGAGTCACCTAGTGCAG,18700 fluorescence intensity (a.u.)
19,TCAGGAGGCTCCTCCTCGACAGCATCAGTAAGCTTCGGGGCGGAGTCACCTAGTGCAG,3570 fluorescence intensity (a.u.)
20,AACGCCCTCCCCGACGCGGTCACCCGGCGCCTGACGCGGCCGGAGTCACCTAGTGCAG,4320 fluorescence intensity (a.u.)
21,GCCGCCGCCACCGCCACCGCCACCGCCCACCTCCGCCGCCCGGAGTCACCTAGTGCAG,3540 fluorescence intensity (a.u.)

# Shown bar-delimited: entries from further up.
row | Sequence | binding signal
4 | AGCTCAAGGCACGCCGCGTGGAACCCGTCCGCGCCGAGCGCGGAGTCACCTAGTGCAG | 3850 fluorescence intensity (a.u.)
5 | TATGTTGCCTAGATACATGACCTGTCCCTCCAGTCTCCCTCGGAGTCACCTAGTGCAG | 5400 fluorescence intensity (a.u.)
6 | TTTTGTAACTCGATGACAAGTTGAGGGTCCTTTGGTGTACCGGAGTCACCTAGTGCAG | 12900 fluorescence intensity (a.u.)
